{"sequences": {"note": "The chains behind the UniProt entries cited, without tags or fusion partners. Where a name states a change or a piece, a line headed by the entry shows the natural chain unless it says otherwise.", "UniProt Q8K458": "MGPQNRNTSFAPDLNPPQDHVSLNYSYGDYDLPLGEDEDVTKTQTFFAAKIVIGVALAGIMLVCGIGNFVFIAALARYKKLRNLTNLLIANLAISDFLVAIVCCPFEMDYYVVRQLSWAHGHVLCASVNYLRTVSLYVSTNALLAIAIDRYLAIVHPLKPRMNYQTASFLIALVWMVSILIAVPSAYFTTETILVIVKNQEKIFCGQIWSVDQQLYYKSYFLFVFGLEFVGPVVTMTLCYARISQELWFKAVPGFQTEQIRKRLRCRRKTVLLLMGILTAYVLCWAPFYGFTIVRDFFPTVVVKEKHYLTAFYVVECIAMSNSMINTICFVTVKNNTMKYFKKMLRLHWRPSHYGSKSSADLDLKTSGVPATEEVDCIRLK"}, "source": "patent US20060172935A1", "about": "(published 2006)", "binders": {"B1": {"name": "125I-human PK2 (iodinated human prokineticin 2) (ligand)", "chain": "AVITGACDKDSQCGGGMCCAVSIWVKSIRICTPMGKLGDSCHPLTRKVPFFGRRMHHTCPCLPGLACLRTSFNRFICLAQK", "modifications": "radioiodinated with 125I (residue not stated for this assay)", "notes": "also called iodinated PK2"}, "B2": {"name": "human PK2 (prokineticin 2) (ligand)", "chain": "B1 chain"}}, "key": {"mouse PK2 receptor [1]": {"target": "T1, mouse PK2 receptor (mouse, UniProt Q8K458 1-381)", "T1 construct": "G-protein coupled receptor; also called PKR2; mouse PKR2", "test": "binding assay with radioiodinated ligand (FIG. 11 legend)"}, "mouse PK2 receptor [2]": {"target": "T1, mouse PK2 receptor", "test": "calcium mobilization assay (FIG. 12 legend)"}}, "note": "These are yes or no findings as the source states them, for the method shown. Some results given as binding are weak or reduced against the parent protein; the word gives no strength."}
{"binder": "B1", "values": [{"measurement": "binding", "setting": "mouse PK2 receptor [1]", "value": "binds"}]}
{"binder": "B2", "values": [{"measurement": "binding", "setting": "mouse PK2 receptor [2]", "value": "binds"}]}
